In patent US20210292412A1:
No constants are given. Whether binding was seen depends on the method and setting. Some results given as binding are weak or reduced against the parent protein; the word gives no strength.

Sequences of proteins named here, by UniProt entry; tags and fusion partners are left off. Residues count along the entry.
UniProt Q08722, residues 19-323: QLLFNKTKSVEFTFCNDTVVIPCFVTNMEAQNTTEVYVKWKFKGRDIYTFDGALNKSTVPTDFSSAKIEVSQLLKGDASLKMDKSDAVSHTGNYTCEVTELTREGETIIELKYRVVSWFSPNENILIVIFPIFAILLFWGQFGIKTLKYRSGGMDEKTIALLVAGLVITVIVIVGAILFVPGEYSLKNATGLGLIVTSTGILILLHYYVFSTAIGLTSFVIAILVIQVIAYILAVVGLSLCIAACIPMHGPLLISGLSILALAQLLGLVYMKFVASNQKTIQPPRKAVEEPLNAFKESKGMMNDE

B1: hybridoma positive clone 2E4 (antibody, V domains shown)
VH: QIQLQQSGPEVVKPGASVEISCKASGYTFTDDYINWYKQKPGQGLEWIGWIYPGSGNAKYNEKFKGKATLIVDTSSTTAYMQLSSLTSEDTAVYFCSRRREDSFDYWGQGTTLTVSS
VL: DFVMSQSPSSLAVSVGEKVTMSCKSSQSLLYSSNQKNYLAWYQQKPGQSPKLLIYWASTRESGVPDRFTGSGSGTDFTLTISSVKPEDLAVYYCQQFYRYPLTFGAGTKLELK
B2: hybridoma positive clone 7H5 (antibody, V domains shown)
VH: QVQLQQPGAELVKPGASVKMSCKASGYTFTNYNFHWVKQRPGQGLEWIGTFYPVNGDTSYNQKFDGKATVTADKSSSTAYMQLSSLTSEDSAVYYCARGGTRAMDYWGQGTSVTVSS
VL: DVLMTQTPLSLPVSLGDQASISCRSSQGIVHSNGNTYLAWYLQKPGQSPKLLIYKVSNRFSGVPDRFSGSGSGTDFTLKISRVEAEDLGVYYCFQGSHVPYTFGGGTKLEIK

Columns and labels:
[1] = biological target: human CD47 on CCRF-CEM cells (CD47 positive cells) (human) (UniProt Q08722); assay: CD47-SIRPα blocking experiment, FIG. 5 legend
[2] = biological target: human CD47 on CCRF-CEM cells (CD47 positive cells) (human) (UniProt Q08722); assay: flow cytometry blocking assay on CCRF-CEM cells, hybridoma supernatant

Binder	binding [1]	binding [2]
B1	binds	binds
B2	binds	binds
